Residue numbers refer to the chain shown, from its start. No constants are given. Whether binding was seen depends on the method and setting. Some entries that bind do so weakly or less than the wild type.

For assay [1], the target named is T1, ScOrc1 K362A (Orc1 subunit of ORC-1^K362A) (S. cerevisiae) (UniProt P54784).
T1 sequence: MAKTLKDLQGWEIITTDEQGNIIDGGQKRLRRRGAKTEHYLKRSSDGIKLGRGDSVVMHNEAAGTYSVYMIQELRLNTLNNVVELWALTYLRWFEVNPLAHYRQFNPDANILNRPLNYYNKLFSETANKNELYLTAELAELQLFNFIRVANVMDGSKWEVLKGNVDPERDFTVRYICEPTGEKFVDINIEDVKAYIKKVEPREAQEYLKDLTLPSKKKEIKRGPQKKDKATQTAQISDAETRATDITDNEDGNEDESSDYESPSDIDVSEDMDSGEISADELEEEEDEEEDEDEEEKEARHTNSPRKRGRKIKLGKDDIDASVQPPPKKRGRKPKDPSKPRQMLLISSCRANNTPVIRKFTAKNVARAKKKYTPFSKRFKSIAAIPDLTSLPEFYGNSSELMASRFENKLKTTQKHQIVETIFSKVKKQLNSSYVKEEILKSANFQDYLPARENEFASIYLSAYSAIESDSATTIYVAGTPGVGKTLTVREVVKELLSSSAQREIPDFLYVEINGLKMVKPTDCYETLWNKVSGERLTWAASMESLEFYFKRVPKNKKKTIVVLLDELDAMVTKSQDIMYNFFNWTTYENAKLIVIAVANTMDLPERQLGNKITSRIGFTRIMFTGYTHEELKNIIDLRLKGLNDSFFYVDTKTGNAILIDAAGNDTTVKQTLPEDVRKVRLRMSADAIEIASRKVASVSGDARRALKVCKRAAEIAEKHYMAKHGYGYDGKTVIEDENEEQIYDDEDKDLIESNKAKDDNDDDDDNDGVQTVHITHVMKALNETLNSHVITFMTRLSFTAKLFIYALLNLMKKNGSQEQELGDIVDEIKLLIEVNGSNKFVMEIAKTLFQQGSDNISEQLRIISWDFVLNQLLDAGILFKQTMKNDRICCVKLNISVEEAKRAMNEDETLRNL
In words: co-purification (affinity column, then gel filtration); Orc1-TEV-His co-overexpressed with Orc2/3/4/5/6 in 293T cells; affinity-purified, fractionated on Superdex 200; fractions on 9% SDS-PAGE, Coomassie staining. Background: Size exclusion chromatography separates by hydrodynamic size, large species first.

For assay [2], the target named is T2, ScOrc1 R367A (Orc1 subunit of ORC-1^R367A) (S. cerevisiae) (UniProt P54784).
T2 sequence: T1 sequence with A362K, R367A
Described as above.

B1: ScOrc6 (protein, UniProt P38826 1-435)
chain: MSMQQVQHCVAEVLRLDPQEKPDWSSGYLKKLTNATSILYNTSLNKVMLKQDEEVARCHICAYIASQKMNEKHMPDLCYYIDSIPLEPKKAKHLMNLFRQSLSNSSPMKQFAWTPSPKKNKRSPVKNGGRFTSSDPKELRNQLFGTPTKVRKSQNNDSFVIPELPPMQTNESPSITRRKLAFEEDEDEDEEEPGNDGLSLKSHSNKSITGTRNVDSDEYENHESDPTSEEEPLGVQESRSGRTKQNKAVGKPQSELKTAKALRKRGRIPNSLLVKKYCKMTTEEIIRLCNDFELPREVAYKIVDEYNINASRLVCPWQLVCGLVLNCTFIVFNERRRKDPRIDHFIVSKMCSLMLTSKVDDVIECVKLVKELIIGEKWFRDLQIRYDDFDGIRYDEIIFRKLGSMLQTTNILVTDDQYNIWKKRIEMDLALTEPL
B1: the binding entry in assay [1] and in assay [2] was “binds” each time.

B2: ScOrc2 (protein, UniProt P32833 1-620)
chain: MLNGEDFVEHNDILSSPAKSRNVTPKRVDPHGERQLRRIHSSKKNLLERISLVGNERKNTSPDPALKPKTPSKAPRKRGRPRKIQEELTDRIKKDEKDTISSKKKRKLDKDTSGNVNEESKTSNNKQVMEKTGIKEKREREKIQVATTTYEDNVTPQTDDNFVSNSPEPPEPATPSKKSLTTNHDFTSPLKQIIMNNLKEYKDSTSPGKLTLSRNFTPTPVPKNKKLYQTSETKSASSFLDTFEGYFDQRKIVRTNAKSRHTMSMAPDVTREEFSLVSNFFNENFQKRPRQKLFEIQKKMFPQYWFELTQGFSLLFYGVGSKRNFLEEFAIDYLSPKIAYSQLAYENELQQNKPVNSIPCLILNGYNPSCNYRDVFKEITDLLVPAELTRSETKYWGNHVILQIQKMIDFYKNQPLDIKLILVVHNLDGPSIRKNTFQTMLSFLSVIRQIAIVASTDHIYAPLLWDNMKAQNYNFVFHDISNFEPSTVESTFQDVMKMGKSDTSSGAEGAKYVLQSLTVNSKKMYKLLIETQMQNMGNLSANTGPKRGTQRTGVELKLFNHLCAADFIASNEIALRSMLREFIEHKMANITKNNSGMEIIWVPYTYAELEKLLKTVLNTL
As for B2, the binding entry in assay [1] and in assay [2] was “binds” each time.

For the origin of these results see publication PMC4601075, “Specific binding of eukaryotic ORC to DNA replication origins depends on highly conserved basic residues” (Scientific Reports, 2015).
